Laboratory results taken from the supplement of paper PMC8728848.
Some of the results follow.

What was measured:
Assay in all cases: glycan array binding signal (z-score within array); higher = stronger binding
Settings in all cases: glycan notation: IUPAC condensed, linker removed
Gal(b1-2)Gal = biological target: Gal(b1-2)Gal
Outline: (§1)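 Glycan array data came from 3228 arrays in the Consortium for Functional Glycomics database, and only arrays with an available protein sequence were kept. Glycan names were put into IUPAC-condensed notation, and columns mapping to the same glycan were averaged. The binding signal is a within-array Z-score, averaged across arrays of one protein sequence run at different concentrations or buffers and across linkers. A negative Z-score can be read as non-binding.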

Gal(b1-3)Gal = biological target: Gal(b1-3)Gal
Outline: as §1

Gal(b1-3)Gal(b1-4)GlcNAc = biological target: Gal(b1-3)Gal(b1-4)GlcNAc
Outline: as §1

Gal(b1-3)GalNAc = biological target: Gal(b1-3)GalNAc
Outline: as §1

[1] = biological target: Gal(b1-3)GalNAc(a1-3)[Fuc(a1-2)]Gal(b1-4)Glc
Outline: as §1

[2] = biological target: Gal(b1-3)GalNAc(a1-3)[Fuc(a1-2)]Gal(b1-4)GlcNAc
Outline: as §1

Gal(b1-3)GalNAc(b1-3)Gal = biological target: Gal(b1-3)GalNAc(b1-3)Gal
Outline: as §1

[3] = biological target: Gal(b1-3)GalNAc(b1-3)Gal(a1-4)Gal(b1-4)Glc
Outline: as §1

[4] = biological target: Gal(b1-3)GalNAc(b1-4)Gal(b1-4)Glc
Outline: as §1

[5] = biological target: Gal(b1-3)GalNAc(b1-4)[Neu5Ac(a2-3)]Gal(b1-4)Glc
Outline: as §1

Gal(b1-3)GlcNAc = biological target: Gal(b1-3)GlcNAc
Outline: as §1

[6] = biological target: Gal(b1-3)GlcNAc(a1-3)Gal(b1-4)GlcNAc
Outline: as §1

[7] = biological target: Gal(b1-3)GlcNAc(a1-6)Gal(b1-4)GlcNAc
Outline: as §1

Gal(b1-3)GlcNAc(b1-2)Man = biological target: Gal(b1-3)GlcNAc(b1-2)Man
Outline: as §1

[8] = biological target: Gal(b1-3)GlcNAc(b1-2)Man(a1-3)[Gal(b1-3)GlcNAc(b1-2)Man(a1-6)]Man(b1-4)GlcNAc(b1-4)GlcNAc
Outline: as §1

[9] = biological target: Gal(b1-3)GlcNAc(b1-2)Man(a1-3)[Gal(b1-3)GlcNAc(b1-2)Man(a1-6)]Man(b1-4)GlcNAc(b1-4)[Fuc(a1-6)]GlcNAc
Outline: as §1

[10] = biological target: Gal(b1-3)GlcNAc(b1-2)Man(a1-3)[GlcNAc(b1-4)][Gal(b1-3)GlcNAc(b1-2)Man(a1-6)]Man(b1-4)GlcNAc(b1-4)GlcNAc
Outline: as §1

[11] = biological target: Gal(b1-3)GlcNAc(b1-2)[Gal(b1-3)GlcNAc(b1-6)]Man(a1-6)[Gal(b1-3)GlcNAc(b1-2)Man(a1-3)]Man(b1-4)GlcNAc(b1-4)GlcNAc
Outline: as §1

[12] = biological target: Gal(b1-3)GlcNAc(b1-3)Gal(b1-3)GlcNAc
Outline: as §1

[13] = biological target: Gal(b1-3)GlcNAc(b1-3)Gal(b1-4)Glc
Outline: as §1

[14] = biological target: Gal(b1-3)GlcNAc(b1-3)Gal(b1-4)GlcNAc
Outline: as §1

[15] = biological target: Gal(b1-3)GlcNAc(b1-3)Gal(b1-4)GlcNAc(b1-2)Man(a1-3)[Gal(b1-3)GlcNAc(b1-3)Gal(b1-4)GlcNAc(b1-2)Man(a1-6)]Man(b1-4)GlcNAc(b1-4)GlcNAc
Outline: as §1

[16] = biological target: Gal(b1-3)GlcNAc(b1-3)Gal(b1-4)GlcNAc(b1-2)[Gal(b1-3)GlcNAc(b1-3)Gal(b1-4)GlcNAc(b1-6)]Man(a1-6)[Gal(b1-3)GlcNAc(b1-3)Gal(b1-4)GlcNAc(b1-2)Man(a1-3)]Man(b1-4)GlcNAc(b1-4)[Fuc(a1-6)]GlcNAc
Outline: as §1

[17] = biological target: Gal(b1-3)GlcNAc(b1-3)Gal(b1-4)GlcNAc(b1-3)Gal(b1-4)GlcNAc(b1-2)[Gal(b1-3)GlcNAc(b1-3)Gal(b1-4)GlcNAc(b1-3)Gal(b1-4)GlcNAc(b1-6)]Man(a1-6)[Gal(b1-3)GlcNAc(b1-3)Gal(b1-4)GlcNAc(b1-3)Gal(b1-4)GlcNAc(b1-2)Man(a1-3)]Man(b1-4)GlcNAc(b1-4)[Fuc(a1-6)]GlcNAc
Outline: as §1

[18] = biological target: Gal(b1-3)GlcNAc(b1-3)Gal(b1-4)GlcNAc(b1-6)[Gal(b1-3)GlcNAc(b1-3)]Gal(b1-4)Glc
Outline: as §1

[19] = biological target: Gal(b1-3)GlcNAc(b1-3)Gal(b1-4)[Fuc(a1-3)]GlcNAc
Outline: as §1

[20] = biological target: Gal(b1-3)GlcNAc(b1-3)Gal(b1-4)[Fuc(a1-3)]GlcNAc(b1-6)[Gal(b1-3)GlcNAc(b1-3)]Gal(b1-4)Glc
Outline: as §1

[21] = biological target: Gal(b1-3)GlcNAc(b1-3)GalNAc
Outline: as §1

[22] = biological target: Gal(b1-3)GlcNAc(b1-6)Gal(b1-4)GlcNAc
Outline: as §1

[23] = biological target: Gal(b1-3)GlcNAc(b1-6)GalNAc
Outline: as §1

[24] = biological target: Gal(b1-3)GlcNAc(b1-6)[Gal(b1-3)]GalNAc
Outline: as §1

Gal(b1-3)GlcNAc6S = biological target: Gal(b1-3)GlcNAc6S
Outline: as §1

[25] = biological target: Gal(b1-3)[Fuc(a1-4)]GlcNAc
Outline: as §1

[26] = biological target: Gal(b1-3)[Fuc(a1-4)]GlcNAc(b1-2)Man
Outline: as §1

[27] = biological target: Gal(b1-3)[Fuc(a1-4)]GlcNAc(b1-2)Man(a1-3)[Gal(b1-3)[Fuc(a1-4)]GlcNAc(b1-2)Man(a1-6)]Man(b1-4)GlcNAc(b1-4)[Fuc(a1-6)]GlcNAc
Outline: as §1

[28] = biological target: Gal(b1-3)[Fuc(a1-4)]GlcNAc(b1-3)Gal(b1-3)[Fuc(a1-4)]GlcNAc
Outline: as §1

[29] = biological target: Gal(b1-3)[Fuc(a1-4)]GlcNAc(b1-3)Gal(b1-4)[Fuc(a1-3)]GlcNAc
Outline: as §1

B1: SspB A3vp1 (Streptococcus gordonii), Q54186 (protein)
chain: MTNEADYQAKLAAYQTELARVQKANADAKATYEKAVEDNKAKNAAIKAENEEIKQRNAVAKTDYEAKLAKYEADLAKYKKEFAAYTAALAEAESKKKQDGYLSEPRSQSLNFKSEPNAIRTIDSSVHQYGQQELDALVKSWGISPTNPDRKKSRAYSYFNAINSNNTYAKLVLEKDKPVDVTYTGLKNSSFNGKKISKVVYTYTLKETGFNDGTKMTMFASSDPTVTAWYNDYFTSTNINVKVKFYDEEGQLMNLTGGLVNFSSLNRGNGSGAIDKDAIESVRNFNGRYIPISGSSIKIHENNSAYADSSNAEKSLGARWNTSEWDTTSSPNNWYGAIVGEITQSEISFNMASSKSGNIWFAFNSNINAIGVPTKPVAPTAPTQPMYETEKPLEPAPVAPSYENEPTPPVKTPDQPEPSKPAAALEHHHHHH
Which results are given for B1?
glycan array binding signal (z-score) (Gal(b1-2)Gal): -0.602; glycan array binding signal (z-score) (Gal(b1-3)Gal): -0.282; glycan array binding signal (z-score) (Gal(b1-3)Gal(b1-4)GlcNAc): 0.679; glycan array binding signal (z-score) (Gal(b1-3)GalNAc): -0.285; glycan array binding signal (z-score) [1]: 0.485; glycan array binding signal (z-score) [2]: -0.984; glycan array binding signal (z-score) (Gal(b1-3)GalNAc(b1-3)Gal): 0.434; glycan array binding signal (z-score) [3]: 1.92; glycan array binding signal (z-score) [4]: -0.915; glycan array binding signal (z-score) [5]: -0.461; glycan array binding signal (z-score) (Gal(b1-3)GlcNAc): -0.432; glycan array binding signal (z-score) [6]: 0.081; glycan array binding signal (z-score) [7]: -0.305; glycan array binding signal (z-score) (Gal(b1-3)GlcNAc(b1-2)Man): 0.698; glycan array binding signal (z-score) [8]: 2.64; glycan array binding signal (z-score) [9]: 1.42; glycan array binding signal (z-score) [10]: 1.02; glycan array binding signal (z-score) [11]: 1.46; glycan array binding signal (z-score) [12]: 0.122; glycan array binding signal (z-score) [13]: -0.232; glycan array binding signal (z-score) [14]: -0.438; glycan array binding signal (z-score) [15]: 0.853; glycan array binding signal (z-score) [16]: 1.11; glycan array binding signal (z-score) [17]: 2.53; glycan array binding signal (z-score) [18]: -0.881; glycan array binding signal (z-score) [19]: -0.421; glycan array binding signal (z-score) [20]: -0.296; glycan array binding signal (z-score) [21]: 1.43; glycan array binding signal (z-score) [22]: -0.659; glycan array binding signal (z-score) [23]: -0.034; glycan array binding signal (z-score) [24]: 0.011; glycan array binding signal (z-score) (Gal(b1-3)GlcNAc6S): 0.504; glycan array binding signal (z-score) [25]: -0.514; glycan array binding signal (z-score) [26]: -0.191; glycan array binding signal (z-score) [27]: 0.75; glycan array binding signal (z-score) [28]: -1.17; glycan array binding signal (z-score) [29]: -0.801
